{"source": "patent US8992977B2", "about": "“Multi-day delivery of biologically active substances” (Samos Pharmaceuticals, LLC, priority 2007, dated 2015)", "origin": "cited, not measured here", "settings": "The Pharmacological Basis of Therapeutics 10th ed.; Physicians Desk Reference 58th Ed.; cited from earlier work", "data": [{"smiles": "COc1cc2c(cc1OC)C(=O)C(CC1CCN(Cc3ccccc3)CC1)C2", "note": "(stereo not shown) [Donepezil]", "values": [{"measurement": "half life", "value": 60, "unit": "h"}]}]}
